In all, about 1,900 compounds were measured (“excess over highest single agent (ExcessHSA) synergy score, 6x6 matrix”: median about -83, lowest 2% from about -370 on). Some of the results follow.

This assay has as its system NCI-H446. Description: excess over highest single agent (ExcessHSA) synergy score, 6x6 matrix; higher = less synergy (more negative = stronger synergy). The note with it: 72 h; CellTiter-Glo viability.
Regarding `CC1=C(CO)C(=O)O[C@@H]([C@@H](C)[C@H]2CC[C@H]3[C@@H]4C[C@H]5O[C@]56[C@@H](O)C=CC(=O)[C@]6(C)[C@H]4CC[C@]23C)C1` + Cc1sc2c(c1C)C(c1ccc(Cl)cc1)=N[C@@H](CC(=O)OC(C)(C)C)c1nnc(C)n1-2 [NCGC00250412-19], the “excess over highest single agent” value is -151. With `Cc1cccc(C#Cc2ccccc2)n1` + Cc1sc2c(c1C)C(c1ccc(Cl)cc1)=N[C@@H](CC(=O)OC(C)(C)C)c1nnc(C)n1-2 [NCGC00250412-19] the figure was -114; with `CC(C)CC(=O)N[C@H](C(=O)N[C@H](C(=O)N[C@@H](CC(C)C)[C@@H](O)CC(=O)N[C@@H](C)C(=O)N[C@@H](CC(C)C)[C@@H](O)CC(=O)O)C(C)C)C(C)C` + Cc1sc2c(c1C)C(c1ccc(Cl)cc1)=N[C@@H](CC(=O)OC(C)(C)C)c1nnc(C)n1-2 [NCGC00250412-19], -213; with `O=C(/C=C/c1ccc(CN(CCO)CCc2c[nH]c3ccccc23)cc1)NO` + Cc1sc2c(c1C)C(c1ccc(Cl)cc1)=N[C@@H](CC(=O)OC(C)(C)C)c1nnc(C)n1-2 [NCGC00250412-19], -177. Consider `Cc1nc(N)ncc1-c1nc(N2CCOCC2)c2sc(C(C)(C)O)cc2n1` + Cc1sc2c(c1C)C(c1ccc(Cl)cc1)=N[C@@H](CC(=O)OC(C)(C)C)c1nnc(C)n1-2 [NCGC00250412-19], for which the “excess over highest single agent” value is -337. For the molecule `CC1=C[C@@H]2[C@H]([C@@H](O)C[C@@]3(C)[C@H]2C[C@@H](C)[C@]3(O)C(=O)CO)[C@@]2(C)Cc3cnn(-c4ccccc4)c3C=C12` + Cc1sc2c(c1C)C(c1ccc(Cl)cc1)=N[C@@H](CC(=O)OC(C)(C)C)c1nnc(C)n1-2 [NCGC00250412-19], the “excess over highest single agent” value is -73.1. With `O=C(O)[C@@H](c1ccc(OCc2ccc3ccccc3n2)cc1)C1CCCC1` + Cc1sc2c(c1C)C(c1ccc(Cl)cc1)=N[C@@H](CC(=O)OC(C)(C)C)c1nnc(C)n1-2 [NCGC00250412-19] the figure was -31.3; with `COc1ccc(S(=O)(=O)N(C(C)=O)c2ccccc2/C=C/c2cc[n+]([O-])cc2)cc1` + Cc1sc2c(c1C)C(c1ccc(Cl)cc1)=N[C@@H](CC(=O)OC(C)(C)C)c1nnc(C)n1-2 [NCGC00250412-19], -347; with `C[N+]1(C)[C@@H]2C[C@@H](OC(=O)[C@H](CO)c3ccccc3)C[C@H]1[C@@H]1O[C@@H]12` + Cc1sc2c(c1C)C(c1ccc(Cl)cc1)=N[C@@H](CC(=O)OC(C)(C)C)c1nnc(C)n1-2 [NCGC00250412-19], -73.8. Regarding `O=C(NOC[C@H](O)CO)c1ccc(F)c(F)c1Nc1ccc(I)cc1F` + Cc1sc2c(c1C)C(c1ccc(Cl)cc1)=N[C@@H](CC(=O)OC(C)(C)C)c1nnc(C)n1-2 [NCGC00250412-19], the “excess over highest single agent” value was -276. As for `Cc1ccccn1.N.[Cl-].[Cl-].[Pt+2]` + Cc1sc2c(c1C)C(c1ccc(Cl)cc1)=N[C@@H](CC(=O)OC(C)(C)C)c1nnc(C)n1-2 [NCGC00250412-19], the “excess over highest single agent” value was determined as 123.

In the case of `Cc1cc([C@@H](C)Nc2ccccc2C(=O)O)c2nc(N3CCOCC3)cc(=O)n2c1` + Cc1sc2c(c1C)C(c1ccc(Cl)cc1)=N[C@@H](CC(=O)OC(C)(C)C)c1nnc(C)n1-2 [NCGC00250412-19], the “excess over highest single agent” value is -344.

Take `CC(C)=CCC/C(C)=C/CC/C(C)=C/CC/C(C)=C/CC/C(C)=C/CC/C(C)=C/CC/C(C)=C/CC/C(C)=C/CC/C(C)=C/CO` + Cc1sc2c(c1C)C(c1ccc(Cl)cc1)=N[C@@H](CC(=O)OC(C)(C)C)c1nnc(C)n1-2 [NCGC00250412-19]: the “excess over highest single agent” value is -200.

For `O=C(O)/C=C/c1ccc(Cn2ccnc2)cc1` + Cc1sc2c(c1C)C(c1ccc(Cl)cc1)=N[C@@H](CC(=O)OC(C)(C)C)c1nnc(C)n1-2 [NCGC00250412-19], the “excess over highest single agent” value is -116. For `COc1cc2nccc(Oc3ccc(NC(=O)C4(C(=O)Nc5ccc(F)cc5)CC4)cc3)c2cc1OC` + Cc1sc2c(c1C)C(c1ccc(Cl)cc1)=N[C@@H](CC(=O)OC(C)(C)C)c1nnc(C)n1-2 [NCGC00250412-19], the “excess over highest single agent” value stood at 86.3.

As for `CNC(=O)c1cc(COc2nnc(Nc3ccc(Cl)cc3)c3ccoc23)ccn1` + Cc1sc2c(c1C)C(c1ccc(Cl)cc1)=N[C@@H](CC(=O)OC(C)(C)C)c1nnc(C)n1-2 [NCGC00250412-19], the “excess over highest single agent” value came to 1.95. In the case of `CCCc1nc(C)c2c(=O)nc(-c3cc(S(=O)(=O)N4CCN(CC)CC4)ccc3OCC)[nH]n12` + Cc1sc2c(c1C)C(c1ccc(Cl)cc1)=N[C@@H](CC(=O)OC(C)(C)C)c1nnc(C)n1-2 [NCGC00250412-19] it was -25; in that of `CCCCc1ccc(NS(=O)(=O)c2ccc(C)c(C(=O)N3CCN(c4cccc(C)c4C)CC3)c2)cc1` + Cc1sc2c(c1C)C(c1ccc(Cl)cc1)=N[C@@H](CC(=O)OC(C)(C)C)c1nnc(C)n1-2 [NCGC00250412-19], -18.6; in that of `Oc1ccc(OCc2ccccc2)cc1` + Cc1sc2c(c1C)C(c1ccc(Cl)cc1)=N[C@@H](CC(=O)OC(C)(C)C)c1nnc(C)n1-2 [NCGC00250412-19], 16.8.

Take `N=c1ccn2c(n1)O[C@H]1[C@@H](O)[C@@H](CO)O[C@H]12` + Cc1sc2c(c1C)C(c1ccc(Cl)cc1)=N[C@@H](CC(=O)OC(C)(C)C)c1nnc(C)n1-2 [NCGC00250412-19]: the “excess over highest single agent” value is -340. In the case of `N=C1NC(=O)N2CC12` (centres undefined) + Cc1sc2c(c1C)C(c1ccc(Cl)cc1)=N[C@@H](CC(=O)OC(C)(C)C)c1nnc(C)n1-2 [NCGC00250412-19] it was -57; in that of `C[C@H]1C[C@H]2[C@@H]3CCC4=CC(=O)C=C[C@]4(C)[C@@]3(F)[C@@H](O)C[C@]2(C)[C@@]1(O)C(=O)CO` + Cc1sc2c(c1C)C(c1ccc(Cl)cc1)=N[C@@H](CC(=O)OC(C)(C)C)c1nnc(C)n1-2 [NCGC00250412-19], 99.7; in that of `CN(C)CCOc1ccc(/C(=C(/CCCl)c2ccccc2)c2ccccc2)cc1` + Cc1sc2c(c1C)C(c1ccc(Cl)cc1)=N[C@@H](CC(=O)OC(C)(C)C)c1nnc(C)n1-2 [NCGC00250412-19], -182. As for `CCN1CCN(C(=O)N[C@@H](C(=O)N[C@@H]2C(=O)N3C(C(=O)O)=C(CSc4nnnn4C)CS[C@H]23)c2ccc(O)cc2)C(=O)C1=O` + Cc1sc2c(c1C)C(c1ccc(Cl)cc1)=N[C@@H](CC(=O)OC(C)(C)C)c1nnc(C)n1-2 [NCGC00250412-19], the “excess over highest single agent” value is -38.3.

Source of the values: the supplement of paper PMC10077471.
